In the supplement of paper PMC9877034:
Structures can show the parent of a compound that is named as a salt. Over roughly 1,000 compounds, “cFRET/donor change relative to DMSO, normalised to beta-lapachone positive control (supercomplex I-IV assembly)” has its median near 0.18; the lowest 2% begin near -1. Some of the results follow.

What follows are compounds tested on C2C12 (NDUFB8-AcGFP / COX8A-DsRed-Monomer FRET reporter) (assay: cFRET/donor change relative to DMSO, normalised to beta-lapachone positive control (supercomplex I-IV assembly) (fraction of beta-lapachone effect); higher = more respiratory supercomplex assembly). Settings: 40 µM; 24 h.
Method: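 Cells were treated with 40 uM compound for 24 h and imaged on an IN Cell Analyzer 6000. Corrected FRET was divided by donor signal (cFRET/donor) and measured in two replicate experiments. The score is (mean cFRET/donor of compound - mean DMSO) / (mean beta-lapachone 40 uM - mean DMSO). Compounds flagged for prominent cell death, abnormal morphology or decreased cell number were excluded.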

SMILES | cFRET/donor change
CCn1c(=O)[nH]c2cc(Cl)c(Cl)cc21 | 0.309
O=C(Nc1cc(C(F)(F)F)cc(C(F)(F)F)c1)Nc1c(Br)cc(Br)cc1-c1nn[nH]n1 | 1.37
CC[C@@H]1C(=O)OC[C@@H]1Cc1cncn1C [Pilocarpine nitrate] | 0.153
CC[C@@H]1C(=O)OC[C@@H]1Cc1cncn1C [(+)-Pilocarpine hydrochloride] | 0.534
CN1C(=O)CC[C@H]1c1cccnc1 [(-)-Cotinine] | 0.0254
COC1(C2=NCCN2)COc2ccccc2O1 (centres undefined) | -0.111
OC[C@H]1O[C@@H](n2cnc3c(N[C@H]4CCC[C@@H]4O)ncnc32)[C@H](O)[C@@H]1O | 0.476
Nc1cc(=O)[nH]c(N)n1 [2,4-Diamino-6-pyrimidinone] | 0.0643
N[C@@H](Cc1c[nH]c2ccccc12)C(=O)O [L-Tryptophan] | -0.0634
Nc1ncnc2c1nc(Br)n2C1OC2COP(=O)(O)O[C@@H]2C1O (some centres undefined) [8-Bromo-cAMP sodium] | -0.131
O=C(Nc1cccc(C(=O)Nc2ccc(S(=O)(=O)O)c3cc(S(=O)(=O)O)cc(S(=O)(=O)O)c23)c1)Nc1cccc(C(=O)Nc2ccc(S(=O)(=O)O)c3cc(S(=O)(=O)O)cc(S(=O)(=O)O)c23)c1 | -0.0398
S=C(S)N1CCCC1 [Ammonium pyrrolidinedithiocarbamate] | 0.614
CN(c1ccccc1CNc1nc(Nc2ccc3c(c2)CC(=O)N3)ncc1C(F)(F)F)S(C)(=O)=O | 0.036
NS(=O)(=O)c1cc2c(cc1Cl)NC(C1CC3C=CC1C3)NS2(=O)=O (centres undefined) [Cyclothiazide] | -0.0438
CSC(=N)NCCC[C@H](N)C(=O)O [S-Methyl-L-thiocitrulline acetate] | 0.18
c1ccc2c(CC3=NCCN3)cccc2c1 [Naphazoline hydrochloride] | 0.488
CCN(CC)CC(=O)Nc1c(C)cccc1C [Lidocaine hydrochloride] | 0.237
O=c1n(CCCN2CCN(c3cccc(Cl)c3)CC2)nc2ccccn12 [Trazodone hydrochloride] | 0.586
C=C[C@H]1CN2CC[C@H]1C[C@H]2[C@H](O)c1ccnc2ccc(OC)cc12 [Quinine sulfate] | 0.41
Oc1ccc(-c2nc(-c3ccc(F)cc3)c(-c3ccncc3)[nH]2)cc1 | -0.171
OC1(c2ccc(Cl)cc2)CCN(Cc2c[nH]c3ccccc23)CC1 | 0.296

Single values from above.
Value of S=C(S)N1CCCC1 [Ammonium pyrrolidinedithiocarbamate] under cFRET/donor change: 0.614
Value of COC1(C2=NCCN2)COc2ccccc2O1 (centres undefined) under cFRET/donor change: -0.111

(continued)

SMILES | cFRET/donor change
Nc1ncnc2c1ncn2[C@@H]1O[C@H](COP(=O)(O)OP(=O)(O)OP(=O)(O)OP(=O)(O)OC[C@@H]2O[C@H](n3cnc4c(N)ncnc43)C(O)[C@@H]2O)[C@H](O)C1O (some centres undefined) [P1,P4-Di(adenosine-5')tetraphosphate triammonium] | 0.0746
Nc1cc(N2CCCCC2)nc(N)[n+]1[O-] [Minoxidil] | 0.185
COc1ccc2cc([C@H](C)C(=O)O)ccc2c1 [(-)-Naproxen sodium] | -0.154
CCCN(CCC)CCc1cccc2c1CC(=O)N2 [Ropinirole hydrochloride] | 0.0704
N=C(N)c1ccc(N)cc1 [4-Aminobenzamidine dihydrochloride] | 0.576
Cc1[nH]c(=O)c(C#N)cc1-c1ccc2nccn2c1 [Olprinone hydrochloride] | 0.211
NC(=O)c1cnccn1 [Pyrazinecarboxamide] | 0.098
CCC(=O)c1ccc2c(c1)N(CCCN(C)C)c1ccccc1S2 [Propionylpromazine hydrochloride] | 0.226
O=C(CCNNC(=O)c1ccncc1)NCc1ccccc1 [Nialamide] | 0.468
N/C(=N\C(=O)c1nc(Cl)c(N)nc1N)NCc1ccccc1 [Benzamil hydrochloride] | 0.224
CCCn1c(=O)c2[nH]c(C3CCCC3)nc2n(CCC)c1=O [8-Cyclopentyl-1,3-dipropylxanthine] | -0.105
Cc1cc2c(s1)Nc1ccccc1N=C2N1CCN(C)CC1 [Olanzapine] | 0.385
NC(=O)CC[C@H](N)C(=O)O [L-Glutamine] | 0.414
CCN(CC)CCOc1ccc(Nc2ncc3cc(-c4c(Cl)cccc4Cl)c(=O)n(C)c3n2)cc1 | -5.45
Nc1nc(OCC2CCCCC2)c2[nH]cnc2n1 | 0.33
CC(C)OC(=O)C(C)(C)Oc1ccc(C(=O)c2ccc(Cl)cc2)cc1 [Fenofibrate] | 0.22
CC(C)(C)c1ccc(S(=O)(=O)/C=C/C#N)cc1 | -0.176
O=Nc1ccc2oc(=O)ccc2c1 [6-Nitroso-1,2-benzopyrone] | -1.07
O=C(O)c1cc(=O)c2c(Cl)cc(Cl)cc2[nH]1 [5,7-Dichlorokynurenic acid] | 0.316
CCCCN(CCCC)CC(O)c1cc(Cl)cc2c1-c1ccc(Cl)cc1/C2=C/c1ccc(Cl)cc1 (centres undefined) [Lumefantrine] | 0.354
CN/C(=N\CCSCc1nc[nH]c1C)NC#N [Cimetidine] | 0.3

SMILES | cFRET/donor change
c1ccc(C2CN3CCSC3=N2)cc1 (single isomer, unassigned; (-)) [Tetramisole hydrochloride] | 0.0938
c1ccc(C2CN3CCSC3=N2)cc1 (single isomer, unassigned; (-)) [(-)-Tetramisole hydrochloride] | 0.472
O=C(O)c1cc2cc(Cc3cccnc3)ccc2o1 [Furegrelate sodium] | 0.44
CCOC(=O)c1cnc2c(cnn2CC)c1NN=C(C)C [Etazolate hydrochloride] | 0.546
COc1cc2ncnc(Nc3cccc(Cl)c3)c2cc1OC [Tyrphostin AG 1478] | 0.19
CC(C)(C)c1ccc(C(=O)CCCN2CCC(OC(c3ccccc3)c3ccccc3)CC2)cc1 [Ebastine] | 0.57
CCCCNc1cc(C(=O)O)cc(S(N)(=O)=O)c1Oc1ccccc1 [Bumetanide] | -0.215
Fc1ccc2[nH]c(CN3CCN(c4ccccn4)CC3)cc2c1 | 0.168
CCCCCCCCCC[Si](C)(C)CCC(=O)NC(Cc1ccc(C)cc1)c1ccccc1 (centres undefined) [Sandoz 58-035] | 0.228
CCCCS(=N)(=O)CCC(N)C(=O)O (racemic) [DL-Buthionine-[S,R]-sulfoximine] | -0.0991
NC(=O)OCC(COC(N)=O)c1ccccc1 [Felbamate] | 0.334
COCc1nc2c([nH]1)c(=O)n(C)c(=O)n2CC(C)C [8-Methoxymethyl-3-isobutyl-1-methylxanthine] | 0.383
O=c1cc(-c2ccccc2)[nH]c2nc(Cl)ccc12 [7-Chloro-4-hydroxy-2-phenyl-1,8-naphthyridine] | -1.98
CC(=O)N[C@@H](CS)C(=O)O [N-Acetyl-L-Cysteine] | -0.204
N[C@@H](CCCC(=O)O)C(=O)O [L-2-aminoadipic acid] | -0.139
O=c1[nH]c2cc(C(F)(F)F)ccc2n1-c1cc(C(F)(F)F)ccc1O | 0.0362
NC1CCN(O)C1=O (racemic) | 0.00776
Cn1ccnc1 [1-Methylimidazole] | -0.165
CCN(CC)CCOC(=O)c1ccc(N)cc1 [Procaine hydrochloride] | 0.168
C[C@]12C=CC(=O)C=C1CC[C@H]1[C@@H]3C[C@@H](O)[C@](O)(C(=O)CO)[C@@]3(C)C[C@H](O)[C@@]12F [Triamcinolone] | 0.219
CCCCCCCC/C=C\CCCCCCCC(=O)NCCO [N-Oleoylethanolamine] | 0.0922

SMILES | cFRET/donor change
NC[C@@H](O)c1ccc(O)c(O)c1 [L(-)-Norepinephrine bitartrate] | 0.167
Nc1nc(Cl)nc2c1ncn2[C@@H]1O[C@H](COP(=O)(O)OP(=O)(O)OP(=O)(O)O)[C@H](O)C1O (some centres undefined) [2-Chloroadenosine triphosphate tetrasodium] | 0.486
Oc1cc2c(cc1O)CN(C(=S)NCCc1ccc(Cl)cc1)CCC2 [Capsazepine] | 3.43
CCCCCCC(=O)OC1CC(C)(C)NC(C)(C)C1 [TMPH hydrochloride] | -0.101
Cc1cc(Cn2cnc3c2C[C@@H](C(=O)O)N(C(=O)C(c2ccccc2)c2ccccc2)C3)ccc1N | 0.272
O=C1Cc2c([nH]c3ccc(Br)cc23)-c2ccccc2N1 [Kenpaullone] | -0.309
CNCCCC12CCC(c3ccccc31)c1ccccc12 [Maprotiline hydrochloride] | 0.00698
Cc1cc(Cl)ccc1OCCCC(=O)NO [Droxinostat] | 0.131
O=C(NCCN1CCOCC1)c1ccc(Cl)cc1 [Moclobemide] | -0.177
CCCC(CCC)C(=O)O[C@H]1C[C@H]2CC[C@@H](C1)[N+]2(C)C [Anisotropine methyl bromide] | 0.0542
CC(C)NC[C@H](O)COc1cccc2ccccc12 [(S)-Propranolol hydrochloride] | 0.157
O=c1c(-c2ccc(O)cc2)coc2cc(O)ccc12 [Daidzein] | 0.201
C[C@H]1O[C@@H](n2cc(F)c(=O)[nH]c2=O)[C@H](O)[C@@H]1O [5-fluoro-5'-deoxyuridine] | 0.0814
O=C(O)C=C1CCCc2ccccc2C1O (centres undefined) | 0.355
CC(=O)CCCCn1c(=O)c2c(ncn2C)n(C)c1=O [Pentoxifylline] | 0.111
CCOC(=O)c1ncn2c1CN(C)C(=O)c1cc(F)ccc1-2 [Flumazenil] | 0.392
O=NN(CCCl)C(=O)NCCCl [Carmustine] | 0.379
NCC(O)(CS(=O)(=O)O)c1ccc(Cl)cc1 (centres undefined) [2-Hydroxysaclofen] | 0.0593
CC[C@H](NC(=O)c1c(C)c(-c2ccccc2)nc2ccccc12)c1ccccc1 | 0.321
CC(C(=O)O)c1cccc(C(=O)c2ccccc2)c1 (centres undefined) [Ketoprofen] | 0.186
Nc1nc(N)c2nc(CNc3ccc(C(=O)N[C@@H](CCC(=O)O)C(=O)O)cc3)cnc2n1 [Aminopterin] | 0.216

Rewritten in CSV form: entries from further up
SMILES,cFRET/donor change
Nc1nc(Cl)nc2c1ncn2[C@@H]1O[C@H](COP(=O)(O)OP(=O)(O)OP(=O)(O)O)[C@H](O)C1O (some centres undefined) [2-Chloroadenosine triphosphate tetrasodium],0.486
Oc1cc2c(cc1O)CN(C(=S)NCCc1ccc(Cl)cc1)CCC2 [Capsazepine],3.43
